The nature of the test: qHTS Assay for Modulators of Lamin A Splicing. To be noted: HeLa LMNA splicing GFP/RFP minigene ratio, 48 h. A digest of the protocol:
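S3 HeLa stable clones carrying a lamin A-EGFP splicing minigene plus DsRed2 were seeded at 600 cells/well in Opti-MEM with 2% FBS, pin-dosed and incubated 48 h at 37°C. Acumen cytometry (488 nm) gave the GFP/RFP total-intensity ratio.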
In general terms: In qHTS, concentration-response curves come from the screen itself.

Setting [1] is: measured here: GFP splicing reporter channel.
Setting [2] is: measured here: RFP viability control channel.

Molecules are shown by their SMILES. This is one part of the list. These are further read-outs of the screen, such as a control signal, another cell line or another target. No call is given for them. Compounds called inactive in the main read-out are mostly missing here. The note in brackets gives the kind of curve behind each potency; many fits are weak.

`COc1ccccc1C(=O)NCc1nnnn1-c1ccc(C)c(C)c1`: the half-maximal activity concentration (AC50) (as a rule, the concentration giving half of the maximal activity seen) by setting is: under setting [1], 0.316 µM [rising, full curve, poor fit]; under setting [2], 0.282 µM [rising, full curve, poor fit].

For `Cc1cc(C)n(Cc2ccc(NC(=O)c3ccc(COc4ccccc4Br)cc3)cc2)n1`, the AC50 under setting [2] was 35.5 µM [falling, single point].

On to `CC[n+]1c(/C=C/N(C)c2ccccc2)oc2ccccc21`, for which the AC50 under setting [2] is 12.6 µM [rising, partial curve].

With `CC(C)(C)N/N=C/c1c(O)n(-c2ccc(Cl)cn2)c(=O)c2ccccc12`, the AC50 under setting [1] is 2.51 µM [rising, single point] and the half-maximal activity concentration (AC50) under setting [2] was 0.126 µM [rising, full curve, poor fit].

As to `COc1ccc(NC(=O)c2sc(Cl)nc2-c2ccccc2)cc1`, the AC50 under setting [2] was 35.5 µM [rising, single point].

Turning to `CCCCS(=O)CC(O)COc1ccc(C(C)(C)C)cc1` (stereo unspecified), the AC50 under setting [2] is 22.4 µM [rising, partial curve].

`O=C(Nc1nnc(CSCc2ccc(F)cc2)s1)c1cccc([N+](=O)[O-])c1`: the AC50 is, setting by setting: under setting [1], 35.5 µM [rising, single point]; under setting [2], 35.5 µM [rising, single point].

`Cc1oc(=O)c(NC(=O)c2cccc(Cl)c2)cc1C(=O)c1ccccc1`: the AC50 under setting [1] was 17.8 µM [falling, single point] and the AC50 under setting [2] is 35.5 µM [falling, single point].

As for `O=[N+]([O-])c1ccccc1/C=N/N1CCN(c2ccncc2S(=O)(=O)N2CCCCC2)CC1`, the AC50 was 14.1 µM [rising, single point] under setting [1] and 28.2 µM [rising, single point] under setting [2].

Consider `COc1ccc(-c2c(C#N)c(N)nc3c2CCc2ccccc2-3)cc1OC`, for which the AC50 is, setting by setting: under setting [1], 20 µM [falling, partial curve]; under setting [2], 35.5 µM [falling, single point].

As to `O=c1ccc(Cc2ccc(Cl)cc2)n[nH]1`, the AC50 under setting [1] was 0.0501 µM [falling, full curve, poor fit].

On to `O=C(CN1CCN(S(=O)(=O)c2ccccc2)CC1)Nc1cccc(C(F)(F)F)c1`, for which the AC50 was 11.2 µM [rising, partial curve] under setting [1] and 11.2 µM [rising, partial curve] under setting [2].

For the compound `CC1=C(C(=O)Nc2cccc(F)c2)C(c2ccsc2)C2=C(CC(C)(C)CC2=O)N1` (stereo unspecified), the AC50 under setting [2] is 5.62 µM [rising, single point].

`CSc1cccc(NC(=O)/C=C/c2cccc(Cl)c2)c1`: the AC50 was 35.5 µM [rising, single point] under setting [1] and 25.1 µM [rising, single point] under setting [2].

Turning to `COc1cc(NC(=O)N2CCN(c3cc(-c4noc(C)n4)ccc3C)CC2)cc(OC)c1OC`, the AC50 under setting [1] is 0.501 µM [falling, full curve, poor fit].

In the case of `O=c1[nH]c(=O)n(C2C[C@H](O)[C@@H](CO)O2)cc1C(F)(F)F` (stereo partly specified), the AC50 is, setting by setting: under setting [1], 12.6 µM [falling, single point]; under setting [2], 1.41 µM [rising, full curve].

For the compound `CC(=O)c1ccc(NC(=S)Nc2ccc(N3CCOCC3)cc2)cc1`, under setting [1], the AC50 is 0.0126 µM [falling, partial curve, poor fit].

Turning to `CCOC(=O)CN(C(=O)CSc1nnc2c(n1)[nH]c1ccc(OC)cc12)c1ccc(F)cc1`, the AC50 under setting [2] was 35.5 µM [rising, single point].

For `O=C(CSc1ccc(Cl)cc1)Nc1ccc(-c2nc3ccccc3[nH]2)cc1`, the AC50 under setting [2] was 0.224 µM [rising, full curve, poor fit].

Turning to `Cc1ccc(C2=CC(C)(c3ccc(C)cc3)Nc3nc(C(F)(F)F)nn32)cc1` (stereo unspecified), the AC50 under setting [1] is 31.6 µM [rising, single point].

With `Cc1nnc(SCc2ccccc2)n1N`, the AC50 under setting [2] is 11.2 µM [rising, single point].

Turning to `CC(C)c1ccc(OCC(O)Cn2cnc3ccccc32)cc1` (stereo unspecified), the AC50 under setting [1] is 2.82 µM [rising, single point] and the AC50 under setting [2] is 10 µM [rising, partial curve].

Consider `CCOC(=O)C1(CC2CC2)CCN(Cc2cn[nH]c2-c2ccccc2)CC1`, for which, under setting [2], the AC50 is 0.1 µM [rising, full curve, poor fit].

Regarding `CCCOc1ccc(C2C(=O)N(C3CCCCCC3)CC(=O)N2CCCOCC)cc1OC` (stereo unspecified), the AC50 under setting [2] was 1.41 µM [rising, full curve, poor fit].

Take `CCOC(=O)c1c(C)[nH]c(C(=O)COC(=O)COc2ccccc2C)c1C`: the AC50 under setting [1] was 2.51 µM [falling, full curve, poor fit].

Take `CCOc1ccccc1Nc1nc(-c2sc(NC(=O)c3ccc([N+](=O)[O-])cc3)nc2C)cs1`: the AC50 under setting [1] was 35.5 µM [falling, single point] and the AC50 under setting [2] is 35.5 µM [falling, single point].

For the compound `Cc1ccc(OCc2n[nH]c(=S)n2C2CCCCC2)cc1`, the AC50 under setting [2] was 14.1 µM [rising, single point].

Regarding `CNC(=O)COC(=O)/C=C/c1ccc(F)cc1`, under setting [1], the AC50 was 8.91 µM [falling, partial curve].

As to `O=C(Nc1nnc(C(F)(F)F)s1)C1COc2ccccc2O1` (stereo unspecified), the AC50 under setting [2] is 12.6 µM [rising, single point].

For `O=[N+]([O-])c1cccc(C(=S)N2CCN(c3ccccc3F)CC2)c1`, the AC50 under setting [2] is 15.8 µM [rising, partial curve].

Regarding `CN(CC(O)CON=C1c2ccccc2-c2ccccc21)S(=O)(=O)c1ccc(Br)cc1` (stereo unspecified), the AC50 by setting is: under setting [1], 15.8 µM [falling, partial curve, poor fit]; under setting [2], 12.6 µM [falling, single point].

As for `O=C(Nc1ccc(Cl)cc1)N1CCOC12CCC1(CC2)OCCO1`, the AC50 under setting [1] is 0.0316 µM [falling, full curve, poor fit].

On to `CC(=O)c1ccc(NC(=O)COC(=O)c2c3c(nc4ccccc24)/C(=C\c2cccs2)CCC3)cc1`, for which the AC50 under setting [1] was 0.0398 µM [falling, full curve, poor fit].

As for `C(=N\Nc1nc2ccccc2s1)/c1ccco1`, the AC50 is, setting by setting: under setting [1], 12.6 µM [rising, single point]; under setting [2], 11.2 µM [rising, single point].

In the case of `O=S(=O)(Nc1cccc(-c2ccc(N3CCOCC3)nn2)c1)c1ccc(F)cc1F`, the AC50 under setting [1] was 0.0224 µM [falling, full curve, poor fit].

`Nc1[nH]nc2nc(NCc3ccccc3)c3c(c12)CCN(Cc1ccccc1)C3`: under setting [2], the AC50 is 11.2 µM [rising, partial curve].

Regarding `CCC(=O)NC(=S)Nc1cccc(Cl)c1N1CCCCC1`, the AC50 by setting is: under setting [1], 35.5 µM [falling, single point]; under setting [2], 17.8 µM [falling, partial curve].

`CCC(C)[C@@H](NC(=O)OC(C)(C)C)c1nnc(S(=O)(=O)Cc2cccc(C)c2)o1` (stereo partly specified): under setting [2], the AC50 was 14.1 µM [rising, partial curve].

As for `Cc1ccc(S(=O)(=O)N2CCC(=O)N(CCOCc3ccc(C(F)(F)F)cc3)CC2)cc1`, the half-maximal activity concentration (AC50) was 3.16 µM [rising, single point] under setting [1] and 3.55 µM [rising, full curve] under setting [2].

Turning to `CNc1nc2cc([N+](=O)[O-])c([N+](=O)[O-])cc2nc1NC`, the AC50 under setting [2] was 2.82 µM [rising, partial curve].

Regarding `O=c1[nH]n(-c2ncnc3c2cnn3-c2ccccc2)c(=O)c2ccccc12`, under setting [2], the AC50 was 5.62 µM [falling, single point].

In the case of `CCOc1ccccc1NC(=O)c1cc(S(=O)(=O)NC2CCCC2)ccc1F`, under setting [1], the AC50 is 5.01 µM [falling, full curve, poor fit].

Turning to `COc1ccc(-n2nnnc2/C=C\Nc2ccccc2C(=O)c2ccccc2)cc1`, the AC50 was 6.31 µM [falling, full curve] under setting [1] and 6.31 µM [falling, full curve] under setting [2].

Regarding `Oc1ccccc1N=Nc1nc(-c2ccccc2)c(-c2ccccc2)[nH]1`, the AC50 is, setting by setting: under setting [1], 7.94 µM [falling, partial curve]; under setting [2], 35.5 µM [falling, single point].

On to `NC(N)=Nc1nc(C2COc3ccccc3O2)cs1` (stereo unspecified), for which the AC50 under setting [1] was 8.91 µM [rising, partial curve] and the AC50 under setting [2] is 11.2 µM [rising, partial curve].

With `COc1ccc(CNc2nc3ccccc3n2CCN2CCOCC2)cc1`, the AC50 under setting [2] was 12.6 µM [rising, single point].

As for `COc1ccc(CNc2nc(-c3cccnc3)nc3ccccc23)c(OC)c1`, the AC50 under setting [2] is 35.5 µM [falling, single point].

Consider `CCCn1c(SCC(=O)c2c(C)[nH]c(C)c2C(=O)OCC)nc2ccccc21`, for which the concentration at half-maximal activity (AC50) under setting [2] is 0.316 µM [rising, full curve, poor fit].

For the compound `COc1ccccc1C(NC(=O)C1CCCCC1)c1c(O)ccc2ccccc12` (stereo unspecified), the AC50 under setting [2] was 0.1 µM [rising, partial curve, poor fit].

Regarding `CC(/C=C/c1ccccc1F)=N\NC(=O)C(C)C`, the AC50 under setting [1] is 22.4 µM [falling, single point].

Turning to `CCNC(=S)Nc1scc(-c2ccccc2)c1C(=O)OCC`, the AC50 under setting [2] is 0.0891 µM [rising, full curve, poor fit].

Turning to `CN1CCN(CCCN2c3ccccc3Sc3ccc(S(=O)(=O)N(C)C)cc32)CC1`, the AC50 is, setting by setting: under setting [1], 0.00501 µM [falling, full curve, poor fit]; under setting [2], 0.00447 µM [falling, full curve, poor fit].

Consider `COc1ccc(NS(=O)(=O)c2cccc(-c3nnc(-c4ccccc4)o3)c2)cc1`, for which the half-maximal activity concentration (AC50) by setting is: under setting [1], 35.5 µM [rising, single point]; under setting [2], 35.5 µM [rising, single point].

Take `CC1=C(C(=O)NCc2ccccc2C)C2(CCCCCC2)OC1=O`: the AC50 under setting [1] was 0.02 µM [falling, partial curve, poor fit].

On to `O=C(NCc1cccnc1)c1cc(Sc2cccc(Cl)c2)nc2ccccc12`, for which the AC50 runs as follows: under setting [1], 20 µM [rising, single point]; under setting [2], 22.4 µM [rising, partial curve].

The record behind these values is PubChem BioAssay AID1487 (National Center for Advancing Translational Sciences (NCATS), 2009).
